# Patent publication US20130095098A1 (UCB, published 2013)
# Sequences of proteins named here, by UniProt entry; tags and fusion partners are left off. Residues count along the entry.
# UniProt Q15116, residues 25-288: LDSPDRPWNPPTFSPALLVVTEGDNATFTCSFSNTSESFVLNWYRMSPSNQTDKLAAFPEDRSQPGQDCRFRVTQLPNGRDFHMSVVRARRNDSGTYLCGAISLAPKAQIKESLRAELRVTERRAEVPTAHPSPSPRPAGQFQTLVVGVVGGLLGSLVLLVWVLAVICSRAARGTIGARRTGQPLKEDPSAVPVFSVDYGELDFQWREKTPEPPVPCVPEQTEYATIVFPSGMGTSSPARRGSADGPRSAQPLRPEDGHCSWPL
# No constants are given. Whether binding was seen depends on the method and setting. Some entries that bind do so weakly or less than the wild type.
# Molecular target: human PD-1 (Programmed Death 1), full-length, expressed on transiently transfected HEK293 cells (human) (UniProt Q15116)
# Experiment: flow cytometry on HEK293 cells transiently transfected with human PD-1; FITC mouse anti-human IgG secondary
binder,measurement,value
"antibody CA051-00948 (948 murine parental; cloned recombinant antibody derived from hybridoma Clone 10) (antibody, IgG1, V domains shown, also called Ab948) VH: DVQLQESGPGLVKPSQSLSLTCTVTGYSITSDYAWNWIRQFPGNKLEWMGYINYSGSTSYNPSLKSRISITRDTSKNQFFLQLNSVTTEDTATYYCARWIGSSAWYFDVWGAGTTVTVS VL: DVLMTQTPLSLPVSLGDQASISCRSGQNIVHSNGNTYLEWYLQKPGQSPKLLIYKVSNRFFGVPDRISGSGSGTDFTLKISRVEAEDLGVYFCFQGSHVPFTFGSGTKLEIK",binding,binds
